Publication PMC9067375, “Biochemical and crystallization analysis of the CENP-SX–DNA complex” (Acta Crystallographica. Section F, Structural Biology …, 2022)
Results are given in words; binding and its absence hold for the method and conditions named. Some binding calls cover weakened binding; strength is not graded here.

Tests used:
[1] = target: T1, CENP-SX (MHF) complex, chicken, tetramer (Gallus gallus); assay: condition: only in crystallization drops with 30% 1,4-dioxane (organic solvent); SDS-PAGE of the contents of crystals; crystals grown from the FANCM–CENP-SX pentamer (50 µM) with dsDNA in about 30% 1,4-dioxane, 293 K; crystals, solution and film analysed by 15% SDS–PAGE, Coomassie Brilliant Blue; both purified
T1 sequence 1: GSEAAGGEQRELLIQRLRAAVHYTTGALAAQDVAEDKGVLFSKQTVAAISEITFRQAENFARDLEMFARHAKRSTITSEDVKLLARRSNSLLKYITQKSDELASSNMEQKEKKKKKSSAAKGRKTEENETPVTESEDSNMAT
T1 sequence 2: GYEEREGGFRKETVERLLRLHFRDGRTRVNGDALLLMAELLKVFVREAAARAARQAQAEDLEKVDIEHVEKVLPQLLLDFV

[2] = target: T1, CENP-SX (MHF) complex, chicken, tetramer (Gallus gallus); assay: native gel or EMSA; FANCM–CENP-SX pentamer (1.25 µM) with dsDNA of 19–97 bp (1.25 µM), 42°C for 60 min, 10 mM Tris–HCl pH 7.5, 100 mM NaCl; 10–20% gradient native PAGE, ethidium bromide and Coomassie staining; both purified

B1: FANCM fragment, chicken (as in the FANCM–CENP-SX complex) (domain or fragment)
chain: GRSLHHKSALFSCVTDPKEMHCHENWSLSPEEFEIWDRLYRLKENDGVKEPILPHTRFETLENLDKTSKPEEEAAHKLSLSEWSIWQSRPFPTSMVDHSDRCYHFISVMELIEVMRQEQGDCSYELELQPHLRIEDIHVRRNKGHLSP
binding [1]: no binding
binding [2]: binds
